# Measurements reported in PubChem BioAssay AID504808 (Drosophila RNAi Screening Center, 2011).
# Aim: 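Fly genes required to hold E2F transcription in check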 (primary screen)
# Cell system: Drosophila S2 cells
# Reagent: long dsRNA against Drosophila genes
# Detection: 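Firefly luciferase driven by E2F sites, normalised to Renilla luciferase on the same minimal promoter, measured by plate reader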
# Scale: E2F firefly: higher = more E2F reporter activity; Renilla normaliser: higher = more normaliser reporter signal
# Rule for the call: 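a knock-down counted as active when the firefly/Renilla E2F signal rose above 50%, a threshold chosen arbitrarily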
# The screen tested about 21,000 reagents; shown is an unselected part of those that have a named target and a result. Of all reagents, 18 (0.084%) got an active call. 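Raw counts without plate normalisation, one of two replicates; the ratio scores behind the calls were not deposited.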 A plus sign joins genes that one reagent is predicted to hit. The record does not give: the amount of reagent, the time to read-out.
Target gene,amplicon,"E2F firefly, rep 1","Renilla normaliser, rep 1",activity call
Frq1 (GeneID 32797),DRSC19961,2.55e5,7260,inactive
bin (GeneID 38766),DRSC10332,81037,3191,inactive
BEAF-32 + CG42254 (retired record),DRSC05503,1.15e5,4174,inactive
Ptx1 (GeneID 43664),DRSC16804,1.25e5,6770,inactive
Rsph9 (GeneID 318950),DRSC01594,1.31e5,5499,inactive
CG11307 (GeneID 40400),DRSC11648,82364,3871,inactive
polybromo (GeneID 42954),DRSC14307,66940,3445,inactive
Sdhaf3 (GeneID 42004),DRSC15020,94852,4791,inactive
RpL6 (GeneID 43723),DRSC14323,47655,3999,inactive
aust (GeneID 34244),DRSC02558,1.38e5,4987,inactive
PGRP-LD + Pmi,DRSC10512,77300,3683,inactive
PGRP-LD + Pmi,DRSC10513,88533,4204,inactive
Naa40 (GeneID 43500),DRSC16265,1.27e5,6244,inactive
CG9302 (GeneID 34750),DRSC03191,47271,3457,inactive
beat-Vc (GeneID 41575),DRSC12927,76828,2642,inactive
beat-Vc (GeneID 41575),DRSC14849,1.33e5,5967,inactive
CG10477 (GeneID 38679),DRSC09732,74649,2991,inactive
CG3770 (GeneID 37991),DRSC04416,74961,3200,inactive
Spn43Aa (GeneID 45041),DRSC06117,90085,3206,inactive
Ir52d (GeneID 36716),DRSC06264,94848,3928,inactive
CG5111 (GeneID 43085),DRSC15717,98297,5731,inactive
CG13056 (GeneID 50267),DRSC09937,1.73e5,8043,inactive
CG31534 (retired record) (GeneID 40585),DRSC12141,90018,3594,inactive
CG31534 (retired record) (GeneID 40585),DRSC12289,1.33e5,6182,inactive
PlexA (GeneID 43832),DRSC17220,2165,980,inactive
Muc68Ca (GeneID 2768980),DRSC10312,49857,3280,inactive
Muc68Ca (GeneID 2768980),DRSC10313,93702,1361,inactive
SC35 (GeneID 53444),DRSC02502,82166,4027,inactive
SC35 (GeneID 53444),DRSC03425,95072,4163,inactive
ninaB (GeneID 41678),DRSC16807,1.23e5,6563,inactive
Polr3K + Tcs1,DRSC05988,95919,3628,inactive
Coq8 (GeneID 32239),DRSC19900,1.34e5,6972,inactive
CG12851 (GeneID 37993),DRSC04131,1.25e5,4281,inactive
CG17283 (GeneID 42094),DRSC15219,1.12e5,6593,inactive
CG32718 (GeneID 318168),DRSC17538,85405,2524,inactive
CG2577 (GeneID 32188),DRSC19863,1.07e5,5154,inactive
CG11381 (GeneID 31067),DRSC17780,58674,3844,inactive
CG5910 (GeneID 40264),DRSC11786,1.54e5,7706,inactive
l(2)k01209 (GeneID 36953),DRSC06889,1.44e5,5341,inactive
NAT1 (GeneID 46020),DRSC06854,3205,198,inactive
CG13405 (GeneID 38016),DRSC08310,1.03e5,4235,inactive

Entries listed so far whose target name starts with B or b:
Target gene,amplicon,"E2F firefly, rep 1","Renilla normaliser, rep 1",activity call
bin (GeneID 38766),DRSC10332,81037,3191,inactive
BEAF-32 + CG42254 (retired record),DRSC05503,1.15e5,4174,inactive
beat-Vc (GeneID 41575),DRSC12927,76828,2642,inactive
beat-Vc (GeneID 41575),DRSC14849,1.33e5,5967,inactive

More results:
Target gene,amplicon,"E2F firefly, rep 1","Renilla normaliser, rep 1",activity call
Madm (GeneID 40710),DRSC12129,1.19e5,6385,inactive
Nmnat (GeneID 42987),DRSC14644,1.17e5,6038,inactive
CG6216 (GeneID 39257),DRSC10606,1.24e5,6980,inactive
CG13039 (GeneID 39805),DRSC09920,1.51e5,6741,inactive
TM9SF4 (GeneID 34778),DRSC01888,93013,3633,inactive
TM9SF4 (GeneID 34778),DRSC02537,96743,4416,inactive
CG15563 (GeneID 43695),DRSC15101,1.11e5,5541,inactive
inv (GeneID 36239),DRSC07633,92957,4302,inactive
CG4702 (GeneID 41472),DRSC15626,69783,3558,inactive
CG8668 (GeneID 34107),DRSC03101,91445,4278,inactive
rost (GeneID 34222),DRSC03603,76184,3282,inactive
CG12069 (GeneID 43643),DRSC14470,1.19e5,5974,inactive
swi2 (GeneID 37010),DRSC06457,1.47e5,5188,inactive
ThrRS (GeneID 45784),DRSC02843,92474,3926,inactive
CG14342 (GeneID 33310),DRSC00372,1.64e5,6268,inactive
CG30002 (GeneID 246384),DRSC05182,1.40e5,6488,inactive
Polr1A (GeneID 36617),DRSC07535,2884,224,inactive
SRPK (GeneID 36706),DRSC07090,74827,3648,inactive
CG17549 (GeneID 35212),DRSC02625,78482,3945,inactive
h-cup + Rbp,DRSC14990,1.09e5,6942,inactive
Ublcp1 (GeneID 42726),DRSC14149,62050,2698,inactive
CG6425 (GeneID 43216),DRSC16038,1725,872,inactive
Pde11 (GeneID 35107),DRSC02028,51806,2954,inactive
Pde11 (GeneID 35107),DRSC02460,85932,3898,inactive
CG13223 (GeneID 36190),DRSC06344,1.01e5,4290,inactive
CG33288 (GeneID 2768968),DRSC11484,87004,3932,inactive
shu (GeneID 45360),DRSC04484,77442,3166,inactive
Slob (retired record) (GeneID 34039),DRSC03436,87161,4215,inactive
CG14491 (GeneID 37046),DRSC06462,1.65e5,5194,inactive
Bap55 (GeneID 36956),DRSC07000,90235,186,inactive
Sbds (GeneID 38749),DRSC10992,72118,3650,inactive
Not3 (GeneID 35501),DRSC04908,80477,4132,inactive
Cyp4d21 (GeneID 34036),DRSC03305,73788,3447,inactive
Cyp6a20 (GeneID 36664),DRSC07380,150,35,inactive
CG12516 (GeneID 43370),DRSC14524,1.14e5,5238,inactive
CG11663 (GeneID 31036),DRSC17793,59120,3630,inactive
CG9259 (GeneID 35372),DRSC03174,90753,3989,inactive
svp (GeneID 41491),DRSC12899,85228,2602,inactive
svp (GeneID 41491),DRSC15311,69001,5755,inactive
svp (GeneID 41491),DRSC17075,1.42e5,7538,inactive
CG14000 (GeneID 33820),DRSC02332,1.38e5,4760,inactive
Cyp312a1 (GeneID 40005),DRSC11128,1.64e5,8374,inactive
Drep3 (GeneID 36292),DRSC06312,1.07e5,4082,inactive
Drep3 (GeneID 36292),DRSC07529,49705,4319,inactive
